Reference: paper PMC5102403
Results are given in words; binding and its absence hold for the method and conditions named. Binding seen in cells or lysates may run through a third protein. Some results given as binding are weak or reduced against the parent protein; the word gives no strength. Each block holds one substance with its values, some of them ahead of it.

Protein sequences, listed by entry. Tags and fused reporters are not part of them. Lines headed by an entry give the natural chain unless they say otherwise; changes in a name come on top.
UniProt Q96GY3: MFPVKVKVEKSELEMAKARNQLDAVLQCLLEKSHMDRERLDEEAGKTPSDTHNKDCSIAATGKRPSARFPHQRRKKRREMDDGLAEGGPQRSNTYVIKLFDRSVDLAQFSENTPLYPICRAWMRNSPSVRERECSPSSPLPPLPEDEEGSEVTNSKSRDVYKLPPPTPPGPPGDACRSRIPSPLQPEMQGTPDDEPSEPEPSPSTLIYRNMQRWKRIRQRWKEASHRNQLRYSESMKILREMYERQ
UniProt P51943: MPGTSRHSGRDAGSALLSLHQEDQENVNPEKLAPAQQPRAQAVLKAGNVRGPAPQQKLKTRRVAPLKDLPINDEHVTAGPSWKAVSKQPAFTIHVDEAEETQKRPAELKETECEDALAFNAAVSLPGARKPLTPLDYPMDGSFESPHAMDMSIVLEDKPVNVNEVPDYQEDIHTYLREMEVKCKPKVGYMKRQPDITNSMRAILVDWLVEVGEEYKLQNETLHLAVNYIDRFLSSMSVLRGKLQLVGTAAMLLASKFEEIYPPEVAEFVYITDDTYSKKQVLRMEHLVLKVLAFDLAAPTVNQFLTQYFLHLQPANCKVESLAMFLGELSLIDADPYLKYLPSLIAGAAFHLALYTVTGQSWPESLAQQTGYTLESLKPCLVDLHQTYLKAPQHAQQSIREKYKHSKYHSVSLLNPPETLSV
UniProt P24860: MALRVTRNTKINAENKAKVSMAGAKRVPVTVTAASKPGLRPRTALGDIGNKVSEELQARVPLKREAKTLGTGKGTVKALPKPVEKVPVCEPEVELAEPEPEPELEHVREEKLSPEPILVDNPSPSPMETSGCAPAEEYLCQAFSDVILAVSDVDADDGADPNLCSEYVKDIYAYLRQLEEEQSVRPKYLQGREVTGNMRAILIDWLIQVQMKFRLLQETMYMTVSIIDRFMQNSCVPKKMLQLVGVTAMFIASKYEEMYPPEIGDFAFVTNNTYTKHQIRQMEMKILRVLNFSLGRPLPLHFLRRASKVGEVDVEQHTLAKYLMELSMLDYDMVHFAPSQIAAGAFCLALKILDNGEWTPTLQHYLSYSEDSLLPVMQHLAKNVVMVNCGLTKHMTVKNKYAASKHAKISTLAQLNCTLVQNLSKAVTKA
UniProt P10244: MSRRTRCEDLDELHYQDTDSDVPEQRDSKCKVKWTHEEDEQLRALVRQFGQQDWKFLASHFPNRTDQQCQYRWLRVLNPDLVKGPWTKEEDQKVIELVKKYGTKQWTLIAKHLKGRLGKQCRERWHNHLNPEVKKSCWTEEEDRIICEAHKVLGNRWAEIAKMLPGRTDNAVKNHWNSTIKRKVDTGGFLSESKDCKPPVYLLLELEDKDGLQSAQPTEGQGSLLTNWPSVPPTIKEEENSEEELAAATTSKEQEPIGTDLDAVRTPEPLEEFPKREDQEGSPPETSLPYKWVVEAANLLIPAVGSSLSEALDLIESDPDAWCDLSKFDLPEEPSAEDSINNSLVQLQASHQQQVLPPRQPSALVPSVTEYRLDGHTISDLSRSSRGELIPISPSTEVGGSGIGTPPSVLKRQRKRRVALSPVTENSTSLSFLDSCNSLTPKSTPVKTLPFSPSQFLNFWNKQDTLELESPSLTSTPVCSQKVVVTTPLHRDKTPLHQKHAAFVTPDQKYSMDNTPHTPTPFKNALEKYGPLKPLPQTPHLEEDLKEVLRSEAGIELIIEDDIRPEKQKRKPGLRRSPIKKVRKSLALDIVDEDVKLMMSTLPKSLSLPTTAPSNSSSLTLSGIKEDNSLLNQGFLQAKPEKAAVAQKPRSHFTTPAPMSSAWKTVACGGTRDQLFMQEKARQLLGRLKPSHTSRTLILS
UniProt P11440: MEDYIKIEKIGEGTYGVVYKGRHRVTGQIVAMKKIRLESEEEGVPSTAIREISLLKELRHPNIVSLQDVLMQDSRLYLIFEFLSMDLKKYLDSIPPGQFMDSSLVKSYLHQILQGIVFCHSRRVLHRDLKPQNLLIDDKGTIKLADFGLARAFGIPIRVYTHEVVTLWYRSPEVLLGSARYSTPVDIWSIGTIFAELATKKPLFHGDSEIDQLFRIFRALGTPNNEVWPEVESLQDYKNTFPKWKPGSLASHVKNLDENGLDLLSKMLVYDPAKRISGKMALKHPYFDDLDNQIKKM
UniProt Q8CGW9: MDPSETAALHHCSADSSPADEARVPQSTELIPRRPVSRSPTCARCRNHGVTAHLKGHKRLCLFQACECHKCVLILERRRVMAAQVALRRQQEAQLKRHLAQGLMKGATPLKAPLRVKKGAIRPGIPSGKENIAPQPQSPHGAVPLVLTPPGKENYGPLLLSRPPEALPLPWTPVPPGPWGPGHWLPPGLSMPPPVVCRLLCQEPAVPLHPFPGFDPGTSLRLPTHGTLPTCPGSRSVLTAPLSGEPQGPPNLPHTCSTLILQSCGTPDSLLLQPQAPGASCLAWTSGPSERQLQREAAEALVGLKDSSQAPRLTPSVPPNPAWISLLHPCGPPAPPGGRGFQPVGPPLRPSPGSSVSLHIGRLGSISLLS
UniProt Q08999: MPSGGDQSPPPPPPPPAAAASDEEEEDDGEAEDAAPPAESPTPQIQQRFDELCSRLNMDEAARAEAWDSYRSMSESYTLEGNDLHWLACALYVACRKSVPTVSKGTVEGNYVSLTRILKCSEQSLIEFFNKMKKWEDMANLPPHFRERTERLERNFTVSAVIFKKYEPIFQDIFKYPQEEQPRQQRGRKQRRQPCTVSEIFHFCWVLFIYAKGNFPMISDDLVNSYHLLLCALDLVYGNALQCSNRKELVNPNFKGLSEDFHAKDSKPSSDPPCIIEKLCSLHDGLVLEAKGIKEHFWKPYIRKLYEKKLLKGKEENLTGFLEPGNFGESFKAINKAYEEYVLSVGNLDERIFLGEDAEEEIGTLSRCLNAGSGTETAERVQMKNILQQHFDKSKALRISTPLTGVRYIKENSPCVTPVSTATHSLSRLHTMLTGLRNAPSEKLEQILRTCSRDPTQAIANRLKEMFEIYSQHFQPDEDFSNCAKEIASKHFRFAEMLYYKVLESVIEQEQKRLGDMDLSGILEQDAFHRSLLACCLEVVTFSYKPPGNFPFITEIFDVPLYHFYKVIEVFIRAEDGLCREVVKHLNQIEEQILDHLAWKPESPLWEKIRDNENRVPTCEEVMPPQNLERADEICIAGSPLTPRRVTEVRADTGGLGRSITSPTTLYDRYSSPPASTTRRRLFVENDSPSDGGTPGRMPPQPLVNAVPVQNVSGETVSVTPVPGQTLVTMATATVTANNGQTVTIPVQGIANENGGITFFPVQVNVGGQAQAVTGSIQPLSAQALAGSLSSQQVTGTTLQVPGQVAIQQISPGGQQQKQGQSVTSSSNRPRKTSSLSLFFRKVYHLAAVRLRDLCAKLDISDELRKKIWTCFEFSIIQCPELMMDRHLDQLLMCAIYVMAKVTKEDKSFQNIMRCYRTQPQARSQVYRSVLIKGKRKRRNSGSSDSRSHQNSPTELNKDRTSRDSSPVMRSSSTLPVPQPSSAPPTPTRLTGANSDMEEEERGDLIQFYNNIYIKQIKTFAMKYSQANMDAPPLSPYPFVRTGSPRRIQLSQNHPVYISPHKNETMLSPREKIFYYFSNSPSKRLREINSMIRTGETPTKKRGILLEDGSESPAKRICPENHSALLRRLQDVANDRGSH

Tests used:
[1] = target: Lin37, human (human (endogenous in T98G)) (UniProt Q96GY3); experiment: co-IP; T98G cells serum starved for 72 hrs, stimulated with 20% FBS with 0.2% DMSO, harvested at time-points; anti-Lin37 immunoprecipitates immunoblotted
[2] = target: N-terminally Flag- and HA-tagged cyclin E1 (cyclin E1^Ntag knock-in allele) (mouse) (UniProt Q61457); experiment: co-IP; anti-Flag immunoprecipitation from spleens and thymuses of Cdk2+/+/cyclin E1 Ntag/Ntag (KI) and Cdk2-/-/cyclin E1 Ntag/Ntag mice, wild-type mice as control, immunoblot
[3] = target: cyclin A2, mouse (mouse (endogenous in spleen)) (UniProt P51943); experiment: co-IP; cyclins D1, A2 or B1 immunoprecipitated from lysates of wild-type or Cdk2-/- spleens, immunoblot
[4] = target: cyclin B1, mouse (mouse (endogenous in spleen)) (UniProt P24860); experiment: as above
[5] = target: cyclin E1 (endogenous wild-type, mouse) (mouse (endogenous in mouse organs and MEFs)) (UniProt Q61457); experiment: co-IP; Cdk2 or Mybl1 immunoprecipitated from lysates of mouse testes, immunoblot
[6] = target: Lin37, human (human (endogenous in T98G)) (UniProt Q96GY3); experiment: co-IP; T98G cells transfected with HA-p130 WT or PM, with or without HA-Cdk2 and Myc-cyclin E1, lysed 24 hrs after transfection; anti-Lin37 immunoprecipitation (IgG control), immunoblot
[7] = target: Lin37, human (human (endogenous in T98G)) (UniProt Q96GY3); experiment: co-IP; T98G cells serum starved for 72 hrs, stimulated with 20% FBS with 20 μM CVT-313, harvested at time-points; anti-Lin37 immunoprecipitates immunoblotted

binding [1]: binds
Substance: B-Myb, human (from UniProt P10244 1-700)

binding [2]: binds
binding [3]: binds
binding [4]: binds
Substance: Cdk1, mouse (from UniProt P11440 1-297) (enzyme)

binding [2]: binds
Substance: Cdk5, mouse (from UniProt P49615 1-292) (enzyme)

binding [5]: binds
Substance: Dmrtc2, mouse (endogenous) (from UniProt Q8CGW9 1-370)

binding [6]: binds
Substance: HA-tagged wild-type p130 (from UniProt Q08999 1-1139)

binding [7]: binds
binding [1]: binds
Substance: p130, human (from UniProt Q08999 1-1139)
